Assays:
[1] = test system: retrosplenial cortex (RSP); assay: Two-photon imaging of retrosplenial cortex; type: in vivo, mouse
Method: Mice were anesthetized with isoflurane and the skull above retrosplenial cortex was removed and replaced with a 7 mm circular glass coverslip. For layer 1 experiments, Thy1GcaMP6s mice were used. For layer 2/3 experiments, Cux2-CreER; Ai148 mice were used (tamoxifen dissolved in corn oil was injected intraperitoneally at 0.1 mg/g at least 2 weeks prior to imaging). For layer 5 experiments, Rbp4-Cre mice were injected locally in retrosplenial with 800 nL AAVdj-Ef1a-DIO-GCaMP6f (titer 5E12) at stereotactic coordinates (−3AP, 0.5ML, −0.6DV). Mice were given >=1 week to recover before imaging. Awake, head-fixed imaging was performed on a standard two photon microscope (NeuroLabWare, Los Angeles, CA). A 16x 0.8 NA Nikon objective was immersed in clear ultrasound gel for imaging (Aquasonic, Parker Laboratories); frame rate of 30 Hz. […]
Two-photon tiff stack videos were registered to the average image using the TurboReg ImageJ plug-in using rigid body transformations. […] The resulting traces were detrended and z-scored. The full frame fluorescence (used for quantifying layer 1 neuropil oscillations) was computed by summing all of the pixels in each frame on each time point, and then computing DF/F the same way, with no neuropil subtraction step. […]

[2] = test system: retrosplenial cortex (RSP); assay: Retrosplenial gene disruption (HCN1, GRIN1) and fiber photometry; type: in vivo, mouse
Method: A 405 nm and 470 nm LED illumination (Thorlabs) was combined (425 nm longpass, Thorlabs DMLP425) and coupled into a fiber optic patch cord (400 μm diameter, 0.48 NA, Doric Lenses) using a longpass dichroic (505 nm, Thorlabs DMLP505) and a fixed-focused coupler/collimator with a standard FC connector (F240FC-A, NA 0.51, f=7.9 mm)^47,48. Each illumination channel was frequency modulated using the sync output from a lock-in amplifier (SR810 DSP, Stanford Research Systems).
Analysis was performed using custom MATLAB (MathWorks) scripts. Widefield imaging videos were registered to a 2D top-projection atlas generated from the annotated Allen Brain Atlas volume, version CCFv2, in MATLAB (MathWorks), using an affine transformation computed from four manually selected control points. Each video was DF/F normalized, using the median for each pixel over the entire time series as F. The 410 nm channel was then temporally smoothed using a moving average (width=400 ms). The smoothed 410 nm DF/F signal for each pixel was regressed onto the 488 nm DF/F signal for the corresponding pixel, and the regression coefficients were used to scale the 410 nm channel to the 488 nm channel. This scaled 410 nm DF/F signal was then subtracted from the 488 nm DF/F signal to produce a normalized signal for each pixel. For quantification, activity traces were extracted from points centered in five cortical regions (visual, somatosensory, parietal, motor, retrosplenial) on the left hemisphere of the brain. The video data was Gaussian smoothed spatially (radius=2 pixels). Similarly, for fiber photometry recordings, the 410 nm signal was regressed onto the 488 nm signal, the 410 nm signal was scaled by the regression coefficients, and then subtracted from the 488 nm signal.
Stereotaxic Surgery: Adult male and female HCN1^f/f, NR1^f/f, or wildtype C57/BI6 were injected bilaterally in two retrosplenial locations (AP −3.1 and −3.4, ML+/−0.5, DV −0.5) with 1 uL of AAV8-Ef1 a-mCherry-IRES-Cre (titer 5E11) and AAVdj-Ef1a-DIO-GCaMP6m (titer 1E13). A 400-micron optical fiber was implanted over one injection location. […]

## CNC1(c2ccccc2Cl)CCCCC1=O (centres unmarked) [ketamine]
[1]; layer 2/3
  Hedge's g effect-size, mean 1-3 Hz power before/after ketamine across cells: −0.46
[1]; layer 5
  Hedge's g effect-size, mean 1-3 Hz power before/after ketamine across cells: 3.16
[2]; GRIN1 knockout
  Hedge's g effect-size, oscillation-power pre/post ketamine: 2.03
[2]; HCN1 knockout
  Hedge's g effect-size, oscillation-power pre/post ketamine: 1.02
[2]; WT
  Hedge's g effect-size, oscillation-power pre/post ketamine: 3.22

— patent publication US12582616B2, “Molecular targets for modulation of dissociative and associative states” (The Board of Trustees of the Leland Stanford Junior …, priority 2020, dated 2026)
